The target in the data set is RAD51-Q242R (human) (UniProt Q06609). Kind of data set: EMSA. As to conditions: 2 mM AMP-PNP, 10 mM Mg2+, 20 mM Hepes-NaOH pH 7.5, 0.1 mg/ml BSA, 1 mM DTT, 10 mM MgCl2, 150 mM KCl, 2 mM ATP or AMP-PNP or no nucleotide, 2.7 uM (nt) DNA, 37 C 10 min, 8% native PAGE in 1x TBE, recombinant protein, protein details: N-terminal His-tag removed with thrombin.

Protein sequences, listed by entry. Tags and fused reporters are not part of them.
UniProt Q06609, whole entry Q242R: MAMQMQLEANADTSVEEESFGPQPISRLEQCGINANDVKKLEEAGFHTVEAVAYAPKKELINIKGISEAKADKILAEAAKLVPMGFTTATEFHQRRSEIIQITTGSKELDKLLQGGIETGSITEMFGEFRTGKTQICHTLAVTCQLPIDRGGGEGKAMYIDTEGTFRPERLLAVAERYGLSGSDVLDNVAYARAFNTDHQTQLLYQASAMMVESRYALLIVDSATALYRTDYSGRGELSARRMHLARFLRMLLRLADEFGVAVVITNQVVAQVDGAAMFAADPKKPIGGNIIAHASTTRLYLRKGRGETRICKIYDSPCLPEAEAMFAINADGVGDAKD

The exact form of at least one protein or probe is not confirmed. A weaker result is weaker than the reference pair of the same experiment. At least one verdict rests on a figure or table, not on a statement of the authors.

Take “AAATCAATCTAAAGTATATATGAGTAAACTTGGTCTGACGTTACCAATGCTTAATCAGTGAGGCACCTATCTCAGCGATCTGTCTATTT [Cy5-OL2]”: the binding signal (% ssDNA bound at 1 uM protein) (label: 5'-Cy5, single-stranded DNA) is 55.
With “TAATACAAAATAAGTAAATGAATAAACAGAGAAAATAAAG (double strand) [Cy5-OL4/OL5 40-mer]”, for the setting “label: 5'-Cy5 on strand 1”, the binding result is reported as “binds more weakly”.

For the origin of these results see article PMC10716581.
